# Measurements: PubChem BioAssay AID686970 (National Center for Advancing Translational Sciences (NCATS), 2013)
# In all, about 360,000 compounds went through this assay and about 6,000 (1.7%) were called active. All entries are inconclusive by the source's own rule. Clear calls are listed elsewhere. Calls follow the shape of the dose curve; as a rule, active = well fitted cell-killing curve with a large enough effect; inconclusive = small, poorly fitted or top-dose-only effect, or effect the other way; inactive = flat fitted curve, though single readings scatter. Some salts and complexes are drawn in separate pieces, as the source files them; their charges need not balance.
# Assay: qHTS for induction of synthetic lethality in tumor cells producing 2HG: qHTS for the HT-1080-NT fibrosarcoma cell line;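 also: NT is the 2HG producing partner of a matched IDH1 knockdown line; nearly all actives have a fitted effect of over 55% in size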
# Settings: HT-1080-NT fibrosarcoma viability, CellTiter-Glo ATP luminescence, 48 h
# Potency is read from the fitted curve at half-maximal effect.
row,Structure (SMILES),Potency
1,Cc1ccc(Nc2c([N+](=O)[O-])cc([N+](=O)[O-])cc2[N+](=O)[O-])cc1,inconclusive: 29.1 µM
2,O=[N+]([O-])c1cc([N+](=O)[O-])c(Nc2ccc(Cl)cc2)c([N+](=O)[O-])c1,inconclusive: 23.1 µM
3,COc1ccc2c(c1O)-c1c(O)c(OC)cc3c1[C@H](C2)[N+](C)(C)CC3.O=[N+]([O-])c1cc([N+](=O)[O-])c([O-])c([N+](=O)[O-])c1[O-],inconclusive: 18.4 µM
4,Cc1cc(C)cc(N(C(=O)c2ccccc2)C2CCN(C(=O)OC(C)(C)C)CC2)c1,inconclusive: 32.6 µM
